Here are results for two sequences from article PMC8974011.

By UniProt entry, the sequences of proteins in these tests, tags left out. Residues count along the entry.
UniProt P42224, 1-746 R602L/Y701F: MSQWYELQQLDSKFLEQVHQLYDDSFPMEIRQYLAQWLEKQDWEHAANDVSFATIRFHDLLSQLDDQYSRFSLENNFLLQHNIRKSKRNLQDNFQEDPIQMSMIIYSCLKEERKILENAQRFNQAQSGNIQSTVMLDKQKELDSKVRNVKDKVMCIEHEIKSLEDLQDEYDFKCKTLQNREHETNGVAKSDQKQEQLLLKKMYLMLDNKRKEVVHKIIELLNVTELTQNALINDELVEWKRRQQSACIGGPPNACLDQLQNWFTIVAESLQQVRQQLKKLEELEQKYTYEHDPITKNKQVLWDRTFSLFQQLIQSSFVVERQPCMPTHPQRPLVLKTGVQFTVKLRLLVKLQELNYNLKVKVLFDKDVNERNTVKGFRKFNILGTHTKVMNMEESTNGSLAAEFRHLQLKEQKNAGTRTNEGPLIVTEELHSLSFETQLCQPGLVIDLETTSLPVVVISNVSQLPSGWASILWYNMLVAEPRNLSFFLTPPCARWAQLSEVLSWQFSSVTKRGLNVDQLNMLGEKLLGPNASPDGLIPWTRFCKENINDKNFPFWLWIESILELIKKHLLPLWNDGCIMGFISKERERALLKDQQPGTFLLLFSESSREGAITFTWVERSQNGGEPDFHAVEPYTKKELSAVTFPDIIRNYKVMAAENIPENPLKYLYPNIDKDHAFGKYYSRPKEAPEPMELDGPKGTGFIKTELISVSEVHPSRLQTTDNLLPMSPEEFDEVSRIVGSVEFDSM
UniProt P42224, 1-746 R274W/T385A/R602L/Y701F: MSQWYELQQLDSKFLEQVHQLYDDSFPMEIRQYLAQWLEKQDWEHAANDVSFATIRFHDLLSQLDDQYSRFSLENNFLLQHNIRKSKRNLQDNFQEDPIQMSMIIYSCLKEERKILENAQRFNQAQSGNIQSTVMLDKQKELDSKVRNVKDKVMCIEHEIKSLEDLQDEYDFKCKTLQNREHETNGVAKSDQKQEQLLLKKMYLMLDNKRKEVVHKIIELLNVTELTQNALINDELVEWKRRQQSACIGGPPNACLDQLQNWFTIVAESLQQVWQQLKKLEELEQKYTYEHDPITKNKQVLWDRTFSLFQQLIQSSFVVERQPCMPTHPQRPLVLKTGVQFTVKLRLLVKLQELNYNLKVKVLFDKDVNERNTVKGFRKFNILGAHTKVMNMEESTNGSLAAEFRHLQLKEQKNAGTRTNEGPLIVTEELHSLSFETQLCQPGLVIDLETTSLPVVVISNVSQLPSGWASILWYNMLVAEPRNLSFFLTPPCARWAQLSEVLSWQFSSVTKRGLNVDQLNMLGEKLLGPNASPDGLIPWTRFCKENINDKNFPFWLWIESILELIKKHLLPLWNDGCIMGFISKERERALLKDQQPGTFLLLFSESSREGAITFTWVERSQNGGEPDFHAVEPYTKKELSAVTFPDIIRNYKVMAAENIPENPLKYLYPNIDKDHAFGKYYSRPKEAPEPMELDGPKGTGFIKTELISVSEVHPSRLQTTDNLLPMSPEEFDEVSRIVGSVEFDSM
UniProt P42224, 1-746: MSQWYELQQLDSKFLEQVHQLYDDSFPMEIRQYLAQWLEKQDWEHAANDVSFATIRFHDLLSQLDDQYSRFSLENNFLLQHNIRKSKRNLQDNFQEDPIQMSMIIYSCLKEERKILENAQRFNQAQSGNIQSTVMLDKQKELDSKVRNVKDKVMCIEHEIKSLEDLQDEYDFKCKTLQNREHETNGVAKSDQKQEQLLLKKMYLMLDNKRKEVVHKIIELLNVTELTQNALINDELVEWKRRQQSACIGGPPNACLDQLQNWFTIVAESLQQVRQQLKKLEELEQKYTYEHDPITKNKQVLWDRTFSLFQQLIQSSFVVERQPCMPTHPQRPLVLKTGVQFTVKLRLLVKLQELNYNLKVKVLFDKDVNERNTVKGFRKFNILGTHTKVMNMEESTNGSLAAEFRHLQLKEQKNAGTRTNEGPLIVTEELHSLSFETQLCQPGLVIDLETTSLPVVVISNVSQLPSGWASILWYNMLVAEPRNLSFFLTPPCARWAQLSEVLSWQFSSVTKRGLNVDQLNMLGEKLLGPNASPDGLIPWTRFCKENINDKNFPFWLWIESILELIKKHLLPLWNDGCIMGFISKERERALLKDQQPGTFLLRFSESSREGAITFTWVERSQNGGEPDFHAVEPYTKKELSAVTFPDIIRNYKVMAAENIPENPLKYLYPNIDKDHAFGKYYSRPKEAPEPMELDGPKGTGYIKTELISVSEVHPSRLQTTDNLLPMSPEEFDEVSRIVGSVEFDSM

Data set [1] deals with R602L/Y701F-GFP (mutant U-STAT1) (Homo sapiens) (UniProt P42224). Put plainly: EMSA. The following applies: IFNg, co-expressed with untagged WT, no GFP-tagged STAT1 band; 4 ul cell extract + 8 ul EMSA reaction buffer (composition and pH not given) with 1 ng 33P probe, 15 min RT; 4.8% 29:1 acrylamide gel at 4 C, 400 V; protein in a lysate after overexpression; residues 1-746; protein details: C-terminal GFP; label: 33P (Klenow end-fill). A general note: In EMSA bound probe runs differently from free probe, usually more slowly.

Data set [2] deals with endogenous STAT1 (IFNg-stimulated, pY701) (UniProt P42224). Put plainly: EMSA. As to conditions: IFNg, cytoplasmic and nuclear fractions of HeLa expressing QM-GFP; 4 ul cell extract + 8 ul EMSA reaction buffer (composition and pH not given) with 1 ng 33P probe, 15 min RT; 4.8% 29:1 acrylamide gel at 4 C, 400 V; protein in an extract; label: 33P (Klenow end-fill).
Data set [3] concerns the target QM-GFP (quadruple mutant U-STAT1) R274W,T385A,R602L,Y701F (Homo sapiens) (UniProt P42224). Put plainly: EMSA. As to conditions: 4 ul cell extract + 8 ul EMSA reaction buffer (composition and pH not given) with 1 ng 33P probe, 15 min RT, 4.8% 29:1 acrylamide gel at 4 C, 400 V, protein in a lysate after overexpression, residues 1-746, protein details: C-terminal GFP, label: 33P (Klenow end-fill).

The target of data set [4] is STAT1alpha WT, untagged (IFNg-stimulated, pY701) (Homo sapiens) (UniProt P42224). Put plainly: EMSA. As to conditions: IFNg, binding irrespective of co-expressed mutant U-STAT1; 4 ul cell extract + 8 ul EMSA reaction buffer (composition and pH not given) with 1 ng 33P probe, 15 min RT; 4.8% 29:1 acrylamide gel at 4 C, 400 V; protein in a lysate after overexpression; label: 33P (Klenow end-fill).

The target of data set [5] is STAT1alpha WT-GFP (IFNg-stimulated, pY701) (Homo sapiens) (UniProt P42224). In words: EMSA. As to conditions: IFNg, co-expressed with untagged WT; 4 ul cell extract + 8 ul EMSA reaction buffer (composition and pH not given) with 1 ng 33P probe, 15 min RT; 4.8% 29:1 acrylamide gel at 4 C, 400 V; protein in a lysate after overexpression; residues 1-746; protein details: C-terminal GFP; label: 33P (Klenow end-fill).

Data set [6] addresses endogenous STAT1 (IFNg-stimulated, pY701) (UniProt P42224). Put plainly: EMSA supershift. As to conditions: IFNg 45 min, tetramer; 4 ul cell extract + 8 ul EMSA reaction buffer (composition and pH not given) with 1 ng 33P probe, 15 min RT; 4.8% 29:1 acrylamide gel at 4 C, 400 V; protein in an extract; label: 33P (Klenow end-fill).
Data set [7] concerns STAT1alpha WT-GFP (IFNg-stimulated, pY701) + endogenous STAT1 (IFNg-stimulated, pY701). Put plainly: EMSA supershift. As to conditions: IFNg 45 min, mixed tetramers of varying stoichiometry; 4 ul cell extract + 8 ul EMSA reaction buffer (composition and pH not given) with 1 ng 33P probe, 15 min RT; 4.8% 29:1 acrylamide gel at 4 C, 400 V; protein in a lysate after overexpression; protein details: C-terminal GFP,none; label: 33P (Klenow end-fill).

Construct, isoform or probe ends are uncertain for at least one entry. Where cells or extracts were used, other partners may take part. For some assays here: Negatives hold for the conditions tested. For some assays here: At least one verdict was read from the data and is not stated in words by the source.

In the case of “TTTTCGACATTTCCCGTAAATCTG (double strand) [M67 (single GAS)]”, the binding result is on record as “no binding” in data set [1]; “binds” in data set [2]; “no binding” in data set [3] (IFNg, co-expressed with untagged WT, no GFP-tagged STAT1 band); “binds” in data set [4]; “binds” in data set [5].

As for “TTTTCGTTTCCCCGAAATTGACGGATTTCCCCGAAAC (double strand) [2xGAS (tandem GAS)]”, the binding result in data set [6] was “binds”; in data set [7], “binds”; in data set [3] (IFNg 45 min, only tetramers of endogenous STAT1 detected), “no binding”.
